# In patent US12137687B2, “Method for inducing acquired resistance in a plant” (HEINRICH HEINE UNIVERSITAET DUESSELDORF, priority 2017, dated 2024):
# Test: Pip/NHP levels in Arabidopsis leaves after Psm inoculation (GC-MS)
# Assay type: in vivo, Arabidopsis thaliana
# Details: 24 hpi
smiles,measurement,setting,value
"O=C(O)[C@@H]1CCCCN1 [Pip, (S)-piperidine-2-carboxylic acid, reference compound]",endogenous level as share of the wild-type level,eds1 mutant,about 14%
same,endogenous level in Psm-inoculated leaves,eds1 mutant,3.8 μg g^−1 FW
same,endogenous level as share of the wild-type level,pad4 mutant,~17%
same,endogenous level in Psm-inoculated leaves,pad4 mutant,4.6 μg g^−1 FW
